PubChem BioAssay AID1259254 – NCATS, 2017
Shown is one part, drawn at random, of about 59,000 reagents tested. About 1,550 of all reagents (2.6%) count as active. 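G2 share is only a proxy for re-replication; each gene was hit by three separate siRNAs, and active genes were retested.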 Raw values vary from plate to plate and are shown uncorrected. A number with no mark means an inactive call. Reagents against one gene are numbered here. Not given: the amount of reagent.

- Aim: 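Finding genes that stop cells copying their DNA twice in one cycle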 (primary screen)
- System: human HCT116 colorectal cancer cells
- Knock-down reagent: single siRNA against human genes
- Time to read-out: 3 days
- Measurement: 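Imaged Hoechst DNA stain sorts each cell into a cycle phase by DNA amount; per plate, G2 fraction set to 0% for non-targeting and 100% for GMNN siRNA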
- Direction: G2 robust z-score and G2 cells, % of GMNN control: higher = more G2 cells, more excess DNA replication; raw share of cells in G2: higher = larger share of cells with G2 DNA content
- Hit rule: 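Active siRNAs have a G2 robust z of 5 or more median absolute deviations over the median, which in these data means about 38% or higher of GMNN control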

| gene | siRNA no. | G2 robust z-score | G2 cells, % of GMNN control | raw share of cells in G2 (%) |
| --- | --- | --- | --- | --- |
| NDUFB4P12 (NADH:ubiquinone oxidoreductase subunit B4 pseudogene 12) | 1 | -0.631 | -1.47 | 2.93 |
| NDUFB4P12 (NADH:ubiquinone oxidoreductase subunit B4 pseudogene 12) | 2 | -0.0136 | 2.87 | 5.98 |
| NDUFB4P12 (NADH:ubiquinone oxidoreductase subunit B4 pseudogene 12) | 3 | 0.201 | 4.38 | 5.4 |
| RGS3 (regulator of G protein signaling 3) | 1 | -1.64 | -8.55 | 2.04 |
| RGS3 (regulator of G protein signaling 3) | 2 | 4.44 | 34.2 | 17.7 |
| RGS3 (regulator of G protein signaling 3) | 3 | 3.15 | 25.1 | 12.5 |
| PUS7 (pseudouridine synthase 7) | 1 | -0.279 | 1 | 3.96 |
| PUS7 (pseudouridine synthase 7) | 2 | -0.72 | -2.1 | 3.39 |
| PUS7 (pseudouridine synthase 7) | 3 | -0.638 | -1.52 | 2.69 |
| CHST9 (carbohydrate sulfotransferase 9) | 1 | 0.212 | 4.46 | 5.81 |
| CHST9 (carbohydrate sulfotransferase 9) | 2 | 1.33 | 12.3 | 9.36 |
| CHST9 (carbohydrate sulfotransferase 9) | 3 | -0.782 | -2.54 | 4.37 |
| CCDC178 (coiled-coil domain containing 178) | 1 | 1.6 | 14.2 | 8.87 |
| CCDC178 (coiled-coil domain containing 178) | 2 | -0.564 | -1 | 2.82 |
| CCDC178 (coiled-coil domain containing 178) | 3 | -0.0825 | 2.39 | 5.15 |
| MPZ (myelin protein zero) | 1 | 0.958 | 9.71 | 6.4 |
| MPZ (myelin protein zero) | 2 | -0.463 | -0.289 | 5.25 |
| MPZ (myelin protein zero) | 3 | -0.232 | 1.33 | 6 |
| PSMG2 (proteasome assembly chaperone 2) | 1 | -0.812 | -2.74 | 3.26 |
| PSMG2 (proteasome assembly chaperone 2) | 2 | -0.354 | 0.48 | 4.69 |
| PSMG2 (proteasome assembly chaperone 2) | 3 | -0.484 | -0.44 | 2.89 |
| PSMA6 (proteasome 20S subunit alpha 6) | 1 | 1.93 | 16.5 | 11.3 |
| PSMA6 (proteasome 20S subunit alpha 6) | 2 | 4.1 | 31.8 | 16.2 |
| PSMA6 (proteasome 20S subunit alpha 6) | 3 | 1.33 | 12.3 | 8.49 |
| SKAP1 (src kinase associated phosphoprotein 1) | 1 | 0.417 | 5.9 | 7.42 |
| SKAP1 (src kinase associated phosphoprotein 1) | 2 | -0.37 | 0.367 | 5.32 |
| SKAP1 (src kinase associated phosphoprotein 1) | 3 | -0.971 | -3.87 | 2.44 |
| CRTC2 (CREB regulated transcription coactivator 2) | 1 | -0.219 | 1.43 | 3.58 |
| CRTC2 (CREB regulated transcription coactivator 2) | 2 | 3.63 | 28.5 | 13.1 |
| CRTC2 (CREB regulated transcription coactivator 2) | 3 | 0.461 | 6.21 | 5.7 |
| CDADC1 (cytidine and dCMP deaminase domain containing 1) | 1 | 0.477 | 6.33 | 6.48 |
| CDADC1 (cytidine and dCMP deaminase domain containing 1) | 2 | -0.716 | -2.07 | 4.02 |
| CDADC1 (cytidine and dCMP deaminase domain containing 1) | 3 | -0.583 | -1.13 | 4.96 |
| DDAH1 (dimethylarginine dimethylaminohydrolase 1) | 1 | 1.28 | 12 | 11.2 |
| DDAH1 (dimethylarginine dimethylaminohydrolase 1) | 2 | -0.763 | -2.4 | 3.35 |
| DDAH1 (dimethylarginine dimethylaminohydrolase 1) | 3 | 0.58 | 7.05 | 6.28 |
| MFF (mitochondrial fission factor) | 1 | -1.39 | -6.84 | 1.65 |
| MFF (mitochondrial fission factor) | 2 | -0.57 | -1.04 | 3.96 |
| MFF (mitochondrial fission factor) | 3 | 0.856 | 8.99 | 5.88 |
| SLIT3 (slit guidance ligand 3) | 1 | 3.73 | 29.2 | 14.6 |
| SLIT3 (slit guidance ligand 3) | 2 | -0.812 | -2.75 | 3.05 |
| SLIT3 (slit guidance ligand 3) | 3 | -1.22 | -5.64 | 3.78 |
| UXS1 (UDP-glucuronate decarboxylase 1) | 1 | -0.618 | -1.38 | 4.86 |
| UXS1 (UDP-glucuronate decarboxylase 1) | 2 | 1.32 | 12.3 | 8.64 |
| UXS1 (UDP-glucuronate decarboxylase 1) | 3 | 4.71 | 36.1 | 18.2 |
| C1D (C1D nuclear receptor corepressor) | 1 | 4.37 | 33.7 | 19.8 |
| C1D (C1D nuclear receptor corepressor) | 2 | -0.666 | -1.72 | 4.95 |
| C1D (C1D nuclear receptor corepressor) | 3 | 0.653 | 7.56 | 6.29 |
| ZNF134 (zinc finger protein 134) | 1 | -0.704 | -1.99 | 2.87 |
| ZNF134 (zinc finger protein 134) | 2 | -0.195 | 1.59 | 6.7 |
| ZNF134 (zinc finger protein 134) | 3 | -0.416 | 0.0432 | 3.36 |
| SAMD9L (sterile alpha motif domain containing 9 like) | 1 | 0.683 | 7.77 | 6.4 |
| SAMD9L (sterile alpha motif domain containing 9 like) | 2 | -0.0396 | 2.69 | 4.05 |
| SAMD9L (sterile alpha motif domain containing 9 like) | 3 | 1.93 | 16.5 | 8.47 |
| TRIP13 (thyroid hormone receptor interactor 13) | 1 | -0.21 | 1.49 | 5.24 |
| TRIP13 (thyroid hormone receptor interactor 13) | 2 | 0.696 | 7.87 | 8.03 |
| TRIP13 (thyroid hormone receptor interactor 13) | 3 | -0.451 | -0.205 | 4.44 |
| ARFGEF2 (ARF guanine nucleotide exchange factor 2) | 1 | 2.86 | 23.1 | 15.8 |
| ARFGEF2 (ARF guanine nucleotide exchange factor 2) | 2 | 0.0327 | 3.2 | 5.28 |
| ARFGEF2 (ARF guanine nucleotide exchange factor 2) | 3 | -0.717 | -2.08 | 2.65 |
| LAYN (layilin) | 1 | -0.988 | -3.99 | 2.49 |
| LAYN (layilin) | 2 | -0.337 | 0.596 | 3.1 |
| LAYN (layilin) | 3 | -0.973 | -3.88 | 1.72 |
| IPO8 (importin 8) | 1 | -0.565 | -1.01 | 3.52 |
| IPO8 (importin 8) | 2 | 0.664 | 7.64 | 9.02 |
| IPO8 (importin 8) | 3 | 0.186 | 4.28 | 8.17 |
| ADAM9 (ADAM metallopeptidase domain 9) | 1 | -0.72 | -2.1 | 4.83 |
| ADAM9 (ADAM metallopeptidase domain 9) | 2 | 0.245 | 4.69 | 6.57 |
| ADAM9 (ADAM metallopeptidase domain 9) | 3 | 5.34 (active) | 40.6 | 19 |

Records listed so far called active, once more:
| gene | siRNA no. | G2 robust z-score | G2 cells, % of GMNN control | raw share of cells in G2 (%) |
| --- | --- | --- | --- | --- |
| ADAM9 (ADAM metallopeptidase domain 9) | 3 | 5.34 (active) | 40.6 | 19 |
